Results are given in words; binding and its absence hold for the method and conditions named. Binding seen in cells or lysates may run through a third protein.

Sequences of proteins named here, by UniProt entry; tags and fusion partners are left off. A change or cut given only in a name is not applied to a line headed by its entry.
UniProt Q8VZQ2: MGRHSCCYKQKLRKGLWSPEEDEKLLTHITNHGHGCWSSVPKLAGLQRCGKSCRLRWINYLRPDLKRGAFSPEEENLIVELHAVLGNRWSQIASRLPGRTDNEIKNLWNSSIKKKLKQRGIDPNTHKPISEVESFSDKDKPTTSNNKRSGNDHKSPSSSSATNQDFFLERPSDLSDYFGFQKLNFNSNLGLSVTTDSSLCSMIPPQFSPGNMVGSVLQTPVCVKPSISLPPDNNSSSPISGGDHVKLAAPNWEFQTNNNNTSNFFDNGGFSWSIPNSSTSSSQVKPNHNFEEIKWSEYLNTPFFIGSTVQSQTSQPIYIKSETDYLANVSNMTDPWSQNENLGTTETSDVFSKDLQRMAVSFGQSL
UniProt Q9ATD6: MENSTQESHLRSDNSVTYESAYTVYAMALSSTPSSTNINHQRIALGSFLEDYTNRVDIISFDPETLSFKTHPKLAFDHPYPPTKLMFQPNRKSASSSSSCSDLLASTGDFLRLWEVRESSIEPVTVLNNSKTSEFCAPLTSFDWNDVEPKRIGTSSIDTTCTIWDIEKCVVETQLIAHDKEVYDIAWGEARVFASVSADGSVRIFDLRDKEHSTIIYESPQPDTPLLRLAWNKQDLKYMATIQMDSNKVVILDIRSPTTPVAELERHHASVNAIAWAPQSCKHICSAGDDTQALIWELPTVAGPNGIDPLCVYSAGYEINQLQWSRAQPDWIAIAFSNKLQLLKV

This assay addresses AtMYB61 (Arabidopsis thaliana) (UniProt Q8VZQ2). Briefly: pull-down; LUMIER pulldown: one protein fused to ProtA, the other to Rluc, each single-expressed in HEK293TM cells; lysis buffer 20 mM Tris pH 7.5, 250 mM NaCl, 1.1% Triton X-100, 10 mM EDTA, 10 mM DTT; sheep anti-rabbit IgG-coated Dynabeads, 1 h on ice; Rluc on the beads as percent of input; +: >= 2.5%, w: 1.5%-2.5%, -: < 1.5%; two grades in each cell.

For the substance GhTTG1 (from UniProt Q9ATD6), the binding entry is “no binding”.
